# Assay results reported in the supplement of paper PMC8728848.
# The list shows a part of the results.
# Assays:
# Test in all cases: glycan array binding signal (z-score within array); higher = stronger binding
# Settings in all cases: glycan notation: IUPAC condensed, linker removed
# [1] = target: GlcNAc(b1-3)[GlcNAc(b1-6)]GalNAc
# How it was run: (§1)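 From the Consortium for Functional Glycomics database, 3228 arrays were curated, keeping only those whose protein sequence was available. Binding is given as a within-array Z-score averaged across arrays sharing a protein sequence and across linkers. Negative Z-scores can be read as non-binding.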
# [2] = target: GlcNAc(b1-4)Gal(b1-4)GlcNAc
# How it was run: as §1
# GlcNAc(b1-4)GlcNAc = target: GlcNAc(b1-4)GlcNAc
# How it was run: as §1
# [3] = target: GlcNAc(b1-4)GlcNAc(b1-4)GlcNAc
# How it was run: as §1
# [4] = target: GlcNAc(b1-4)GlcNAc(b1-4)GlcNAc(b1-4)GlcNAc(b1-4)GlcNAc
# How it was run: as §1
# [5] = target: GlcNAc(b1-4)GlcNAc(b1-4)GlcNAc(b1-4)GlcNAc(b1-4)GlcNAc(b1-4)GlcNAc
# How it was run: as §1
# [6] = target: GlcNAc(b1-4)[GlcNAc(b1-6)]GalNAc
# How it was run: as §1
# [7] = target: GlcNAc(b1-6)Gal(b1-4)GlcNAc
# How it was run: as §1
# GlcNAc(b1-6)GalNAc = target: GlcNAc(b1-6)GalNAc
# How it was run: as §1
# GlcNAc3Prop(b1-4)GlcNAc = target: GlcNAc3Prop(b1-4)GlcNAc
# How it was run: as §1
# [8] = target: GlcNAc6S(b1-3)Gal(b1-4)GlcNAc
# How it was run: as §1
# Kdn(a2-3)Gal(b1-3)GalNAc = target: Kdn(a2-3)Gal(b1-3)GalNAc
# How it was run: as §1
# Kdn(a2-3)Gal(b1-3)GlcNAc = target: Kdn(a2-3)Gal(b1-3)GlcNAc
# How it was run: as §1
# Kdn(a2-3)Gal(b1-4)Glc = target: Kdn(a2-3)Gal(b1-4)Glc
# How it was run: as §1
# Kdn(a2-3)Gal(b1-4)GlcNAc = target: Kdn(a2-3)Gal(b1-4)GlcNAc
# How it was run: as §1
# [9] = target: Kdn(a2-3)Gal(b1-4)[Fuc(a1-3)]GlcNAc
# How it was run: as §1
# Kdn(a2-6)Gal(b1-4)GlcNAc = target: Kdn(a2-6)Gal(b1-4)GlcNAc
# How it was run: as §1
# [10] = target: Man(a1-2)Man(a1-2)Man(a1-3)Man
# How it was run: as §1
# [11] = target: Man(a1-2)Man(a1-2)Man(a1-6)[Man(a1-3)]Man
# How it was run: as §1
# Man(a1-2)Man(a1-3)Man = target: Man(a1-2)Man(a1-3)Man
# How it was run: as §1
# [12] = target: Man(a1-2)Man(a1-3)[Man(a1-2)Man(a1-6)]Man
# How it was run: as §1
# [13] = target: Man(a1-2)Man(a1-3)[Man(a1-2)Man(a1-6)]Man(a1-6)[Man(a1-2)Man(a1-2)Man(a1-3)]Man
# How it was run: as §1
# [14] = target: Man(a1-2)Man(a1-3)[Man(a1-2)Man(a1-6)]Man(a1-6)[Man(a1-2)Man(a1-2)Man(a1-3)]Man(b1-4)GlcNAc(b1-4)GlcNAc
# How it was run: as §1
# [15] = target: Man(a1-2)Man(a1-3)[Man(a1-6)]Man(a1-6)[Man(a1-2)Man(a1-3)]Man(b1-4)GlcNAc(b1-4)GlcNAc
# How it was run: as §1
# [16] = target: Man(a1-2)Man(a1-6)[Man(a1-3)]Man(a1-6)[Man(a1-2)Man(a1-2)Man(a1-3)]Man
# How it was run: as §1
# [17] = target: Man(a1-2)Man(a1-6)[Man(a1-3)]Man(a1-6)[Man(a1-2)Man(a1-2)Man(a1-3)]Man(b1-4)GlcNAc(b1-4)GlcNAc
# How it was run: as §1
# Man(a1-3)[Man(a1-6)]Man = target: Man(a1-3)[Man(a1-6)]Man
# How it was run: as §1
# [18] = target: Man(a1-3)[Man(a1-6)]Man(a1-6)[Man(a1-2)Man(a1-3)]Man(b1-4)GlcNAc(b1-4)GlcNAc
# How it was run: as §1
# [19] = target: Man(a1-3)[Man(a1-6)]Man(a1-6)[Man(a1-3)]Man
# How it was run: as §1
# [20] = target: Man(a1-3)[Man(a1-6)]Man(a1-6)[Man(a1-3)]Man(b1-4)GlcNAc(b1-4)GlcNAc
# How it was run: as §1
# [21] = target: Man(a1-3)[Man(a1-6)]Man(b1-4)GlcNAc(b1-4)GlcNAc
# How it was run: as §1
# Man(a1-6)Man = target: Man(a1-6)Man
# How it was run: as §1
# Man(b1-4)GlcNAc = target: Man(b1-4)GlcNAc
# How it was run: as §1
# Neu5Ac(a2-3)Gal = target: Neu5Ac(a2-3)Gal
# How it was run: as §1
# [22] = target: Neu5Ac(a2-3)Gal(b1-3)GalNAc
# How it was run: as §1
# [23] = target: Neu5Ac(a2-3)Gal(b1-3)GalNAc(b1-3)Gal(a1-4)Gal(b1-4)Glc
# How it was run: as §1
# [24] = target: Neu5Ac(a2-3)Gal(b1-3)GalNAc(b1-4)[Neu5Ac(a2-3)]Gal(b1-4)Glc
# How it was run: as §1
# [25] = target: Neu5Ac(a2-3)Gal(b1-3)GalNAc(b1-4)[Neu5Ac(a2-8)Neu5Ac(a2-3)]Gal(b1-4)Glc
# How it was run: as §1
binder,measurement,setting,value
"PGP3 (Chlamydia trachomatis), P0CE18 (protein) MGNSGFYLYNTQNCVFADNIKVGQMTEPLKDQQIILGTTSTPVAAKMTASDGISLTVSNNPSTNASITIGLDAEKAYQLILEKLGDQILGGIADTIVDSTVQDILDKITTDPSLGLLKAFNNFPITNKIQCNGLFTPRNIETLLGGTEIGKFTVTPKSSGSMFLVSADIIASRMEGGVVLALVREGDSKPYAISYGYSSGVPNLCSLRTRIINTGLTPTTYSLRVGGLESGVVWVNALSNGNDILGITNTSNVSFLEVIPQTNA",glycan array binding signal (z-score),[1],-0.587
same,glycan array binding signal (z-score),[2],-1.24
same,glycan array binding signal (z-score),GlcNAc(b1-4)GlcNAc,0.682
same,glycan array binding signal (z-score),[3],0.112
same,glycan array binding signal (z-score),[4],1.18
same,glycan array binding signal (z-score),[5],0.545
same,glycan array binding signal (z-score),[6],-1.49
same,glycan array binding signal (z-score),[7],-0.774
same,glycan array binding signal (z-score),GlcNAc(b1-6)GalNAc,-0.584
same,glycan array binding signal (z-score),GlcNAc3Prop(b1-4)GlcNAc,0.228
same,glycan array binding signal (z-score),[8],0.037
same,glycan array binding signal (z-score),Kdn(a2-3)Gal(b1-3)GalNAc,0.412
same,glycan array binding signal (z-score),Kdn(a2-3)Gal(b1-3)GlcNAc,-1.9
same,glycan array binding signal (z-score),Kdn(a2-3)Gal(b1-4)Glc,0.791
same,glycan array binding signal (z-score),Kdn(a2-3)Gal(b1-4)GlcNAc,1.53
same,glycan array binding signal (z-score),[9],0.816
same,glycan array binding signal (z-score),Kdn(a2-6)Gal(b1-4)GlcNAc,0.145
same,glycan array binding signal (z-score),[10],-0.116
same,glycan array binding signal (z-score),[11],-1.01
same,glycan array binding signal (z-score),Man(a1-2)Man(a1-3)Man,-0.404
same,glycan array binding signal (z-score),[12],0.09
same,glycan array binding signal (z-score),[13],0.073
same,glycan array binding signal (z-score),[14],0.211
same,glycan array binding signal (z-score),[15],-0.08
same,glycan array binding signal (z-score),[16],0.585
same,glycan array binding signal (z-score),[17],0.271
same,glycan array binding signal (z-score),Man(a1-3)[Man(a1-6)]Man,-0.232
same,glycan array binding signal (z-score),[18],-0.694
same,glycan array binding signal (z-score),[19],0.157
same,glycan array binding signal (z-score),[20],0.371
same,glycan array binding signal (z-score),[21],-0.93
same,glycan array binding signal (z-score),Man(a1-6)Man,0.748
same,glycan array binding signal (z-score),Man(b1-4)GlcNAc,0.253
same,glycan array binding signal (z-score),Neu5Ac(a2-3)Gal,0.478
same,glycan array binding signal (z-score),[22],0.031
same,glycan array binding signal (z-score),[23],-0.944
same,glycan array binding signal (z-score),[24],-1.29
same,glycan array binding signal (z-score),[25],0.558

# An excerpt of these results, bar-delimited:
binder | measurement | setting | value
PGP3 (Chlamydia trachomatis), P0CE18 (protein) MGNSGFYLYNTQNCVFADNIKVGQMTEPLKDQQIILGTTSTPVAAKMTASDGISLTVSNNPSTNASITIGLDAEKAYQLILEKLGDQILGGIADTIVDSTVQDILDKITTDPSLGLLKAFNNFPITNKIQCNGLFTPRNIETLLGGTEIGKFTVTPKSSGSMFLVSADIIASRMEGGVVLALVREGDSKPYAISYGYSSGVPNLCSLRTRIINTGLTPTTYSLRVGGLESGVVWVNALSNGNDILGITNTSNVSFLEVIPQTNA | glycan array binding signal (z-score) | [2] | -1.24
same | glycan array binding signal (z-score) | [4] | 1.18
